Laboratory results: the supplement of paper PMC10849652
Some of the results follow.

The chains behind the UniProt entries cited, without tags or fusion partners. Where a name states a change or a piece, a line headed by the entry shows the natural chain unless it says otherwise.
UniProt P22314: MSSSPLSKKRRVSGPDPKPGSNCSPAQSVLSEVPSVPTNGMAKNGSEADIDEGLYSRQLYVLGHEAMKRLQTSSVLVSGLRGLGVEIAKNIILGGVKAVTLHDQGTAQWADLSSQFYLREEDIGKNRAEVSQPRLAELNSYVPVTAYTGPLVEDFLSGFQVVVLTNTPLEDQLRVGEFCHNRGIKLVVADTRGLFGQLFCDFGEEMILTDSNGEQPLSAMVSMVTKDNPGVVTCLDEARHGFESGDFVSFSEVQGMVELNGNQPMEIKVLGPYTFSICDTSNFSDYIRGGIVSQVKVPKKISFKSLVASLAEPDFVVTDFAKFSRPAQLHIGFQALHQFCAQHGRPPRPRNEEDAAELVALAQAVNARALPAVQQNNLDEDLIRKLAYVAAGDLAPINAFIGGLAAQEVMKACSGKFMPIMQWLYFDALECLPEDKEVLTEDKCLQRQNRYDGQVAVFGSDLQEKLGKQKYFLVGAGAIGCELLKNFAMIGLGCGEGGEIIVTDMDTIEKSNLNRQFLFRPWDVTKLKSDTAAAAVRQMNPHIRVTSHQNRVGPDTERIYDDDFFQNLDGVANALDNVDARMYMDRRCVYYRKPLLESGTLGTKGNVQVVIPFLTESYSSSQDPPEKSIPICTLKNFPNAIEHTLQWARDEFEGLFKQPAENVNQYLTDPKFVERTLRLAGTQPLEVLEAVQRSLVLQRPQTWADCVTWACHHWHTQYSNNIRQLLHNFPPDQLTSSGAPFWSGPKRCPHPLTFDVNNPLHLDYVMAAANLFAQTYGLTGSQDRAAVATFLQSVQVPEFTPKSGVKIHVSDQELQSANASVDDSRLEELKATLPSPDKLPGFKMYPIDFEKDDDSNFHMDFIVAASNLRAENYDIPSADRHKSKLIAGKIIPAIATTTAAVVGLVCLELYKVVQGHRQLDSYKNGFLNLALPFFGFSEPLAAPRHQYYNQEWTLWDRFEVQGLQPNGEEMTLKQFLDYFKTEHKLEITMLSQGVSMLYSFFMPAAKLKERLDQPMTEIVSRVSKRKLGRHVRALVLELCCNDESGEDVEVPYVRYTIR
UniProt P04350, whole entry, looked up: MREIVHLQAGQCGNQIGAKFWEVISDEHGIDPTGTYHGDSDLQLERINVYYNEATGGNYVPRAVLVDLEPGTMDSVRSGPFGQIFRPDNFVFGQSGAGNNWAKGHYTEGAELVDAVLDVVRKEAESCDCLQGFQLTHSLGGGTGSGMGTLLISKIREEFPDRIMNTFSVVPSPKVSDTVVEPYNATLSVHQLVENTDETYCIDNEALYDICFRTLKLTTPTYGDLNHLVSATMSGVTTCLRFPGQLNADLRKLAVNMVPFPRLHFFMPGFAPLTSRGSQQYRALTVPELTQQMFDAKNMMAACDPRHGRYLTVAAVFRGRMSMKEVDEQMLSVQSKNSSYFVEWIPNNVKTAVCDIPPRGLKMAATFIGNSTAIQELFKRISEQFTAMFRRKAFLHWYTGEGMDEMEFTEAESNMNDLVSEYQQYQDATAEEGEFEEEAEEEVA
UniProt Q14166: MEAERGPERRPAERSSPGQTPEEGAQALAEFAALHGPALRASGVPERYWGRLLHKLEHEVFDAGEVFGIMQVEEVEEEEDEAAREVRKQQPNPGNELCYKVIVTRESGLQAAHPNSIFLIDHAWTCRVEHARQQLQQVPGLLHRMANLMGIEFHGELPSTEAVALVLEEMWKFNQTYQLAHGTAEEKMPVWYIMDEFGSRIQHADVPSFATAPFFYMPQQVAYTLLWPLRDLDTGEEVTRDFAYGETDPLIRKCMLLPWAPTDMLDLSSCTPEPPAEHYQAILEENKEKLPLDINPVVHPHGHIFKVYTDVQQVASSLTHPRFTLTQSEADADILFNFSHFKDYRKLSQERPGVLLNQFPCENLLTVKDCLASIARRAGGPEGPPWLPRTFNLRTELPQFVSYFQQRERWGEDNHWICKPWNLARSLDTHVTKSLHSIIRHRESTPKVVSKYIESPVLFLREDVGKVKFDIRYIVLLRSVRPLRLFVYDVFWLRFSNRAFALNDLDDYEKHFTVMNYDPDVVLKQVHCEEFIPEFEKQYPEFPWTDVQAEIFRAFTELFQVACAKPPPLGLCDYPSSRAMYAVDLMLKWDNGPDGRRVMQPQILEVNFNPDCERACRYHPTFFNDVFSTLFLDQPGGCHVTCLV
UniProt P0CG48, whole entry, looked up: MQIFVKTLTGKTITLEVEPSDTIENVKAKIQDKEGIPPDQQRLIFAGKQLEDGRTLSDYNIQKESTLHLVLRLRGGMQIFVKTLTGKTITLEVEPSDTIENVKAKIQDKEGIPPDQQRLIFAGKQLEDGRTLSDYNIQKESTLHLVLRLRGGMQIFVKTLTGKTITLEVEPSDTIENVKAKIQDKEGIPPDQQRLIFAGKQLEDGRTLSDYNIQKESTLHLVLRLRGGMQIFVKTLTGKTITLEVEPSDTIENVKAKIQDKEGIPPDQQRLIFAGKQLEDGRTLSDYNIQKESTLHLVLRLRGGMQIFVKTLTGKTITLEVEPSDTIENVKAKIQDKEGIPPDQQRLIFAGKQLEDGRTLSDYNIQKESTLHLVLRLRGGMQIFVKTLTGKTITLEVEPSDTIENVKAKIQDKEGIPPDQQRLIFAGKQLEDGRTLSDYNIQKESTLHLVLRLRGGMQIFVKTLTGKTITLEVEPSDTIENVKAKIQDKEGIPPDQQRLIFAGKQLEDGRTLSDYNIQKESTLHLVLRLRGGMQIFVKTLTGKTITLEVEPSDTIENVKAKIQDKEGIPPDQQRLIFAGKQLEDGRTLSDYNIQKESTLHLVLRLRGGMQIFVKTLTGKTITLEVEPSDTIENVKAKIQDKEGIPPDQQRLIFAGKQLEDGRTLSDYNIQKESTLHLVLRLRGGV
UniProt Q13630: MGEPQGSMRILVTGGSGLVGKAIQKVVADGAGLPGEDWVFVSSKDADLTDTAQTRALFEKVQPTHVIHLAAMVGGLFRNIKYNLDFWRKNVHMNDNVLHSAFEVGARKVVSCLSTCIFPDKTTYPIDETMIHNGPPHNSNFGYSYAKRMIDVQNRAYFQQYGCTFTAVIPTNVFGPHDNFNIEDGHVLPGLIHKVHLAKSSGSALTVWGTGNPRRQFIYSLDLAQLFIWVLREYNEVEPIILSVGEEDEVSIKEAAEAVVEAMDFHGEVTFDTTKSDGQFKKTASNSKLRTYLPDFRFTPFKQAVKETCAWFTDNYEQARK
UniProt Q9BUF5, whole entry, looked up: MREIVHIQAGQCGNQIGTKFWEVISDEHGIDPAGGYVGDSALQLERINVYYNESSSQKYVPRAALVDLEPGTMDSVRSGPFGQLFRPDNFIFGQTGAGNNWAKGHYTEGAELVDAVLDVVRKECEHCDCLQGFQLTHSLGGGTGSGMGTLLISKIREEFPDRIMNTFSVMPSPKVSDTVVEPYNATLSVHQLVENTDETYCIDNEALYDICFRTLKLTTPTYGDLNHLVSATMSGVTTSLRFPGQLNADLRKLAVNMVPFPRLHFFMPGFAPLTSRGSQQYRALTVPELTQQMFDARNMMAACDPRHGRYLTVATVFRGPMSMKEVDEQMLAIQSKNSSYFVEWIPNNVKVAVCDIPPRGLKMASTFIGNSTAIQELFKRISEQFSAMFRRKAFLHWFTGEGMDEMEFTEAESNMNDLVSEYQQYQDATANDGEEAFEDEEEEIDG
UniProt Q16762: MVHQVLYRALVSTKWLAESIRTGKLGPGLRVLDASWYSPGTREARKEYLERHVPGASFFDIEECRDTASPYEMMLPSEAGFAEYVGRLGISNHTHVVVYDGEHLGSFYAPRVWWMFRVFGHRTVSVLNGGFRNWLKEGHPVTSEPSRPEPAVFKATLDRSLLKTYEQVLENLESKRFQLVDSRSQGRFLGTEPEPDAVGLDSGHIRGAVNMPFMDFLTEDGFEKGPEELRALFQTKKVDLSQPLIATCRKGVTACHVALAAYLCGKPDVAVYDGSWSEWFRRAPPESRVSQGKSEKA
UniProt Q12999: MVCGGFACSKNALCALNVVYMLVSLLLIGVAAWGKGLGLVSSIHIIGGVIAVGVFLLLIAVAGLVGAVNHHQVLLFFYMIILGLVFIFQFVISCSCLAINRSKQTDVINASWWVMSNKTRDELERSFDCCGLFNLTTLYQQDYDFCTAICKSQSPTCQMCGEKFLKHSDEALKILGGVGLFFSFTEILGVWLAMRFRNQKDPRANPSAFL
UniProt Q5VYS8: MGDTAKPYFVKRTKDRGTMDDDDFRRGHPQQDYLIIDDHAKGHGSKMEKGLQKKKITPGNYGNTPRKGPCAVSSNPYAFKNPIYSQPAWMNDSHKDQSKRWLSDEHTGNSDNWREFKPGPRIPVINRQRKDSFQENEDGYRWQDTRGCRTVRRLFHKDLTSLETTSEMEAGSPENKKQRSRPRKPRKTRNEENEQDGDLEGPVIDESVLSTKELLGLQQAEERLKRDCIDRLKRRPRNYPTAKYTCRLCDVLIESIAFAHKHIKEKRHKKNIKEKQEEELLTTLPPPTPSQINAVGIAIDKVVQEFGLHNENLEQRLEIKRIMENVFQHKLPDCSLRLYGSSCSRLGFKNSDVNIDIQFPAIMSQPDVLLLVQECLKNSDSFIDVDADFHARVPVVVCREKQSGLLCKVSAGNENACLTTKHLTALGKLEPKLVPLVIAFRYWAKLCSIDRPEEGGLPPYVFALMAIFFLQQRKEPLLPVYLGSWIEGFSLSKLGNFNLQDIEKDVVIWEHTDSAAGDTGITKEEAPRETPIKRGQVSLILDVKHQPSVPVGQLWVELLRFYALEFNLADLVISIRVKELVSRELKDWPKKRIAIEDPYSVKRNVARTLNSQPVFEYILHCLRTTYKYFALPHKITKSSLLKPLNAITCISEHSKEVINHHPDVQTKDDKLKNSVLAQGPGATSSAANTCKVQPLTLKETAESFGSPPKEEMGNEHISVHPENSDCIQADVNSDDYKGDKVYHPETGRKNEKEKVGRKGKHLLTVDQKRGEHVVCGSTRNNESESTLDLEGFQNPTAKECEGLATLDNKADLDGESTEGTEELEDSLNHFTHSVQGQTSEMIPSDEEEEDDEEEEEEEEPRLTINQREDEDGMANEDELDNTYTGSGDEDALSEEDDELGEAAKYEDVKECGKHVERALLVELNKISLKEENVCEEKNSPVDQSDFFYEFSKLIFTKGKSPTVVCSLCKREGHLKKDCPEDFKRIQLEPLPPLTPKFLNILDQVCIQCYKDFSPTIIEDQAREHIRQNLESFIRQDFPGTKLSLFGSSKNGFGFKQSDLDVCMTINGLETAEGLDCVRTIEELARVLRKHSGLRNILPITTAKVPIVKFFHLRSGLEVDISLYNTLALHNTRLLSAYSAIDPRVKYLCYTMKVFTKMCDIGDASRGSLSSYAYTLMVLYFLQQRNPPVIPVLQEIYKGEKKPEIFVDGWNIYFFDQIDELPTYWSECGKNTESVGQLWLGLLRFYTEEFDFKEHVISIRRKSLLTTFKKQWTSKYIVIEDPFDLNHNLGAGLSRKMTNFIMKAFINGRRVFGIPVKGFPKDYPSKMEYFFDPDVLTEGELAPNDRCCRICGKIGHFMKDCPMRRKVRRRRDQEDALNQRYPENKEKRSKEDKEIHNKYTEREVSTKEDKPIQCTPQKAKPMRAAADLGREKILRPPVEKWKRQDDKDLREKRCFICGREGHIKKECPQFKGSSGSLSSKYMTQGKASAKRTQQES
UniProt P0DPH7, whole entry, looked up: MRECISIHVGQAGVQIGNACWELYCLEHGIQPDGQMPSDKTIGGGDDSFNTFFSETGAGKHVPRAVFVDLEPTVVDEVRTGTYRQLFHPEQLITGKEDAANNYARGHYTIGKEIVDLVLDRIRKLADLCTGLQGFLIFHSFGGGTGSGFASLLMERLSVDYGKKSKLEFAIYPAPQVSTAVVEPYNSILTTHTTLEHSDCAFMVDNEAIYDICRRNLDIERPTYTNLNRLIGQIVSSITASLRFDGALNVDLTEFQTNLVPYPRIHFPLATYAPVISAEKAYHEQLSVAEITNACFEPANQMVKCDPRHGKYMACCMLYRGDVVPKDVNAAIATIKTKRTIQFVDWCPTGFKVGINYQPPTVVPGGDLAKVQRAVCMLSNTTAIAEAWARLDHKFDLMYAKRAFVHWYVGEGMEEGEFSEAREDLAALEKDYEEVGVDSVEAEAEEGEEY
UniProt P68036, whole entry, looked up: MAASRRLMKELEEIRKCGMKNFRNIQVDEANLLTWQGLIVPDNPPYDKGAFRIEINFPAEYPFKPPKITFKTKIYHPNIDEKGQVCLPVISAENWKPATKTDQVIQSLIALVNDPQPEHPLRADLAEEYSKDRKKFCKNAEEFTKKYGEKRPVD
UniProt Q5BVD1: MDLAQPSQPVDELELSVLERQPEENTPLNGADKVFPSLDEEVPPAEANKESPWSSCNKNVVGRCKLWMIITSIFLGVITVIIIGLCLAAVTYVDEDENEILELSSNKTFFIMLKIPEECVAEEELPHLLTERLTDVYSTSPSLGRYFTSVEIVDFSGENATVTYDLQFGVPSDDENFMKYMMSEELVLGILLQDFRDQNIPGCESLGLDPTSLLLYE

Assays:
Test in all cases: log2 fold change, soluble protein after heating vs DMSO (PISA); higher = thermal stabilisation; K562 cells, 10 uM, 30 min; active = over 0.2 and 3.5 SD of the protein, either way, in both replicates (recomputed)
[1] = compound: CS(=O)(=O)c1ccc(-c2cnc(N)c(C(=O)Nc3ccccc3)n2)cc1
Outline: (§1)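 K562 cells at 2×10^6 cells/mL were exposed to 10 μM compound for 30 min, then aliquots were heated for 3 min across 48°C-58°C, pooled, and extracted in PBS containing 0.5% NP-40 at 4°C. The supernatant after 21,000xg for 90 min was taken as soluble protein and measured by TMTpro 16plex LC-MS/MS with channel sums equalised. Thermal stability is reported relative to control samples, with values from duplicates. Fold changes are given on a log2 scale.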

[2] = compound: C[C@@H](Oc1cc(-c2cnn(C3CCNCC3)c2)cnc1N)c1c(Cl)ccc(F)c1Cl [crizotinib]
Outline: as §1

[3] = compound: C[C@@H]1COCCN1C2=NC(=NC(=C2)C3(CC3)S(=O)(=O)C)C4=C5C=CNC5=CC=C4
Outline: as §1

[4] = compound: C[C@H](C1=CC=C(C=C1)C(=O)NC2=C3C=CNC3=NC=C2)N
Outline: as §1

[5] = compound: C[C@H](Nc1ncnc2nc[nH]c12)c1cc2cccc(Cl)c2c(=O)n1-c1ccccc1 [duvelisib]
Outline: as §1

[6] = compound: Cc1cc(Nc2cc(N3CCN(C)CC3)nc(Sc3ccc(NC(=O)C4CC4)cc3)n2)n[nH]1 [tozasertib]
Outline: as §1

[7] = compound: Cc1cc(SCc2sc(-c3ccc(C(F)(F)F)cc3)nc2C)ccc1OCC(=O)O
Outline: as §1

[8] = compound: Cc1ccc(-n2nc(C(C)(C)C)cc2NC(=O)Nc2ccc(OCCN3CCOCC3)c3ccccc23)cc1 [doramapimod]
Outline: as §1

[9] = compound: Cc1ccc(C(=O)N(CCCN)[C@@H](c2nc3cc(Cl)ccc3c(=O)n2Cc2ccccc2)C(C)C)cc1 [ispinesib]
Outline: as §1

[10] = compound: Cc1ccc(NC(=O)c2ccc(CN3CC[C@H](N(C)C)C3)c(C(F)(F)F)c2)cc1Nc1nccc(-c2cncnc2)n1 [bafetinib]
Outline: as §1

[11] = compound: Cc1cn(-c2cc(NC(=O)c3ccc(C)c(Nc4nccc(-c5cccnc5)n4)c3)cc(C(F)(F)F)c2)cn1 [nilotinib]
Outline: as §1

[12] = compound: Cc1nc(Nc2n[nH]c3c2CN(C(=O)N[C@H](CN(C)C)c2ccccc2)C3(C)C)c2sccc2n1
Outline: as §1

[13] = compound: Cc1nc(Nc2ncc(C(=O)Nc3c(C)cccc3Cl)s2)cc(N2CCN(CCO)CC2)n1 [dasatinib]
Outline: as §1

[14] = compound: Cc1ncc(-c2ccnc(Nc3ccc(S(C)(=O)=O)cc3)n2)n1C(C)C
Outline: as §1

[15] = compound: Cn1cc(-c2ccc3c(c2)CCN3C(=O)Cc2cccc(C(F)(F)F)c2)c2c(N)ncnc21
Outline: as §1

[16] = compound: Cn1cc(-c2ccc3nnc(C(F)(F)c4ccc5ncccc5c4)n3n2)cn1
Outline: as §1

[17] = compound: FC(F)(F)c1ccc(/C=C/c2nc(COc3ccc(CCCCn4ccnn4)cc3)co2)cc1 [mubritinib]
Outline: as §1

[18] = compound: Cc1cc(Nc2cc(CN3CCOCC3)c3nc(C)c(Cc4ccc(Cl)cc4F)n3n2)n[nH]1 [gandotinib]
Outline: as §1

[19] = compound: Cc1cccc(CC(=O)N2CCc3c2ccc(-c2cn(C)c4ncnc(N)c24)c3F)n1
Outline: as §1

[20] = compound: Cn1cncc1[C@@](N)(c1ccc(Cl)cc1)c1ccc2c(c1)c(-c1cccc(Cl)c1)cc(=O)n2C [tipifarnib]
Outline: as §1

Measured: log2 fold change

TTC12 isoform 2 (UniProt Q9H892)
inactive: [1] -0.043 | [2] -0.04 | [3] -0.318 | [4] 0.368 | [5] -0.143 | [6] 0.033 | [7] 0.017 | [8] 0.19 | [9] -0.078 | [10] 0.299 | [11] -0.29 | [12] 0.215 | [13] 0.094 | [14] -0.071 | [15] -0.162 | [16] 0.148 | [17] 0.035

UBA1 (UniProt P22314)
inactive: [1] 0.127 | [2] -0.338 | [3] 0.091 | [4] 0.017 | [18] -0.068 | [7] 0.148 | [8] -0.031 | [9] -0.11 | [10] 0.034 | [19] 0.187 | [11] -0.089 | [12] -0.062 | [13] -0.216 | [14] 0.062 | [15] 0.027 | [16] 0.121 | [20] -0.235
active: [17] 0.395

TUBB4A (UniProt P04350)
inactive: [1] 0.04 | [2] -0.181 | [3] -0.009 | [4] -0.012 | [5] 0.125 | [6] -0.028 | [7] 0.045 | [8] 0.021 | [9] 0.044 | [10] 0.033 | [11] 0.012 | [12] 0.026 | [13] -0.059 | [14] -0.066 | [15] 0.142 | [16] -0.038 | [20] -0.167 | [17] 0.122

TTLL12 (UniProt Q14166)
inactive: [1] 0.044 | [2] -0.149 | [3] -0.433 | [4] 0.431 | [5] -0.135 | [18] 0.204 | [6] 0.024 | [7] 0.142 | [8] 0.358 | [9] -0.361 | [10] 0.171 | [19] 0.11 | [11] -0.186 | [12] -0.056 | [13] 0.018 | [14] -0.023 | [15] -0.299 | [16] -0.226 | [20] -0.116 | [17] -0.246

UBC (UniProt P0CG48)
inactive: [1] -0.003 | [2] 0.208 | [3] 0.05 | [4] 0.064 | [18] 0.014 | [7] -0.009 | [8] 0.035 | [9] 0.091 | [10] 0.055 | [19] -0.156 | [11] 0.116 | [12] 0.013 | [13] 0.02 | [14] -0.025 | [15] 0.003 | [16] 0.07 | [20] -0.051 | [17] 0.005

TUBB6 (UniProt K7ES63)
inactive: [1] -0.092 | [2] -0.032 | [3] -0.017 | [4] 0.183 | [5] 0.035 | [6] -0.203 | [7] -0.074 | [8] 0.19 | [9] -0.032 | [10] 0.059 | [11] -0.075 | [12] -0.019 | [13] 0.055 | [14] -0.042 | [15] -0.295 | [16] -0.072 | [20] 0.104 | [17] -0.009

TSTA3 (UniProt Q13630)
inactive: [1] -0.01 | [2] 0.041 | [3] 0.062 | [4] -0.056 | [5] 0.024 | [18] -0.031 | [6] -0.042 | [7] -0.034 | [8] -0.024 | [9] -0.011 | [10] -0.041 | [19] -0.02 | [11] -0.011 | [12] 0.023 | [13] 0.044 | [14] -0.007 | [15] 0.036 | [16] 0.031 | [20] 0.018 | [17] 0.014

TUBB6 (UniProt Q9BUF5)
inactive: [1] 0.063 | [2] -0.07 | [3] 0.042 | [4] -0.004 | [5] 0.02 | [18] -0.018 | [6] -0.039 | [7] -0.004 | [8] 0.003 | [9] 0.007 | [10] -0.039 | [19] 0 | [11] 0.016 | [12] 0.003 | [13] -0.027 | [14] -0.006 | [15] 0.061 | [16] 0.007 | [20] -0.056 | [17] 0.036

Looked up one by one from above, two records:
TTLL12 (UniProt Q14166)
inactive: [1] 0.044 | [2] -0.149 | [3] -0.433 | [4] 0.431 | [5] -0.135 | [18] 0.204 | [6] 0.024 | [7] 0.142 | [8] 0.358 | [9] -0.361 | [10] 0.171 | [19] 0.11 | [11] -0.186 | [12] -0.056 | [13] 0.018 | [14] -0.023 | [15] -0.299 | [16] -0.226 | [20] -0.116 | [17] -0.246

TUBB6 (UniProt Q9BUF5)
inactive: [1] 0.063 | [2] -0.07 | [3] 0.042 | [4] -0.004 | [5] 0.02 | [18] -0.018 | [6] -0.039 | [7] -0.004 | [8] 0.003 | [9] 0.007 | [10] -0.039 | [19] 0 | [11] 0.016 | [12] 0.003 | [13] -0.027 | [14] -0.006 | [15] 0.061 | [16] 0.007 | [20] -0.056 | [17] 0.036

Carrying on:

TST (UniProt Q16762)
inactive: [1] -0.016 | [2] -0.119 | [3] 0.062 | [4] 0.299 | [5] 0.11 | [7] -0.041 | [8] -0.007 | [11] -0.07 | [12] -0.095 | [13] -0.045 | [14] 0.064 | [15] 0.064 | [20] 0.059 | [17] -0.142

UBAC2 (UniProt Q8NBM4)
inactive: [1] -0.03 | [2] -0.069 | [3] 0.086 | [4] -0.082 | [5] -0.028 | [18] -0.059 | [6] 0.054 | [7] -0.092 | [8] -0.038 | [9] -0.096 | [10] 0.062 | [19] 0.088 | [11] 0.092 | [12] -0.207 | [13] 0.074 | [14] 0.065 | [15] 0.051 | [16] 0.055 | [20] -0.001 | [17] -0.079

TSPAN31 (UniProt Q12999)
inactive: [1] 0.059 | [2] 0.035 | [3] 0.028 | [4] 0.11 | [5] 0.007 | [6] 0.028 | [7] -0.053 | [8] 0.149 | [11] 0.208 | [12] -0.367 | [13] 0.004 | [14] 0.43 | [15] -0.025 | [20] 0.024 | [17] 0.132

TUT7 (UniProt Q5VYS8)
inactive: [1] 0.059 | [2] -0.063 | [3] -0.5 | [4] 0.178 | [18] 0.182 | [6] 0.251 | [8] 0.06 | [19] 0.11 | [11] 0.041 | [12] 0.111 | [14] -0.05 | [15] -0.037

TUBA3C (UniProt P0DPH7)
inactive: [1] 0.089 | [2] -0.089 | [3] 0.012 | [4] 0.007 | [5] 0.3 | [18] -0.04 | [6] -0.064 | [7] 0.068 | [8] 0.086 | [9] -0.021 | [10] 0.006 | [19] 0.025 | [11] -0.001 | [12] 0.09 | [13] -0.063 | [14] -0.06 | [15] 0.053 | [16] 0.004 | [20] 0.006 | [17] 0.03

UBE2L3 isoform 3 (UniProt P68036)
inactive: [1] 0.052 | [2] 0.004 | [3] -0.025 | [4] -0.094 | [5] 0.032 | [18] 0.016 | [6] 0.007 | [7] -0.015 | [8] -0.022 | [9] 0.035 | [10] -0.047 | [19] 0.011 | [11] 0.021 | [12] -0.037 | [13] 0.061 | [14] -0.005 | [15] 0.025 | [16] 0.033 | [20] 0.028 | [17] 0.03

TTMP isoform 3 (UniProt Q5BVD1)
inactive: [1] 0.146 | [2] -0.018 | [3] 0.203 | [4] -0.229 | [5] 0.102 | [18] 0.143 | [6] -0.047 | [7] -0.043 | [8] 0.05 | [9] -0.054 | [10] 0.023 | [19] -0.033 | [11] -0.062 | [12] -0.024 | [13] 0.138 | [14] 0.007 | [15] 0.111 | [16] -0.045 | [17] 0.109

UBAP1 isoform 4 (UniProt Q9NZ09)
inactive: [1] -0.003 | [2] -0.008 | [3] 0.07 | [4] 0.023 | [18] 0.009 | [7] 0.082 | [8] 0.044 | [9] -0.046 | [10] -0.026 | [19] -0.022 | [11] -0.082 | [12] -0.15 | [13] -0.086 | [14] 0.009 | [15] 0.015 | [16] -0.015 | [20] -0.131 | [17] 0.084
